Data from PMC12631002, “Bioactivity Profiles of Progressively Ring‐Fluorinated Cyclohexyl Motifs in the WKYMVm Peptide as Formylpeptide FPR2 Agonists and in Keto‐Piperazines as Antitrypanosome Agents” (Chembiochem, 2025).
These are yes or no findings as the source states them, for the method shown. Binding seen in cells or lysates may run through a third protein. Binding calls can cover weak binding; strength is not graded here.

By UniProt entry, the sequences of proteins in these tests, tags left out. Where a name states a change or a piece, a line headed by the entry shows the natural chain unless it says otherwise.
UniProt P25090: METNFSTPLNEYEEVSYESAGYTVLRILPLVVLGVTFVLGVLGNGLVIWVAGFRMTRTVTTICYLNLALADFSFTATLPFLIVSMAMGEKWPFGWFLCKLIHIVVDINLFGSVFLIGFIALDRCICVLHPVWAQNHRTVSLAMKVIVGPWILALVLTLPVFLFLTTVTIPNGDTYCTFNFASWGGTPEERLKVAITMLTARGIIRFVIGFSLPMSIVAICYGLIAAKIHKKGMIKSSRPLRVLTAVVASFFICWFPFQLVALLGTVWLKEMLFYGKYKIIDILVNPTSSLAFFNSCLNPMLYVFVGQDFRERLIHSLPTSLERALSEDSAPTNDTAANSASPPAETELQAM
UniProt P32121: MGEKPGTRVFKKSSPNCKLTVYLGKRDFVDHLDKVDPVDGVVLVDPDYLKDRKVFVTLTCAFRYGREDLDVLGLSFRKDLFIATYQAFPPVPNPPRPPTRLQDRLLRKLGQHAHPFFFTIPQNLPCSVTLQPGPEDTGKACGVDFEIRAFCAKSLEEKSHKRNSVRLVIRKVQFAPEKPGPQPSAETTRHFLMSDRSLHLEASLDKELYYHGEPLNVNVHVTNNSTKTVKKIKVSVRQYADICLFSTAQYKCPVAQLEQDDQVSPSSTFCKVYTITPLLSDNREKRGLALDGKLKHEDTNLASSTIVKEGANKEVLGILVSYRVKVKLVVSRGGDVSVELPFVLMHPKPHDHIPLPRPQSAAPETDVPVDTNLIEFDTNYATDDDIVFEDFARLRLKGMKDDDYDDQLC

Target: FPR2-Rluc8 (human) (UniProt P25090)
Test: FRET or BRET; HEK293 cells transiently transfected with FPR2-Rluc8 (donor) and mGsi-Venus or β-arrestin 2-YFP (acceptor); 37 °C, HBSS, coelenterazine H 5 μM; stimulated with increasing concentrations of WKYMVm or analogs; acceptor:donor ratio less that of untreated cells

binding: binds
Substance: β-arrestin 2-YFP (from UniProt P32121 1-409)
